Results published in patent US20170112897A1, “METHODS FOR TREATING BRAIN INSULIN RESISTANCE” (priority 2015, published 2017).
No constants are given. Whether binding was seen depends on the method and setting. Some binding calls cover weakened binding; strength is not graded here.

Amino acid sequences for entries named in this document (tags omitted). Residues count along the entry.
UniProt P06213, residues 763-1382: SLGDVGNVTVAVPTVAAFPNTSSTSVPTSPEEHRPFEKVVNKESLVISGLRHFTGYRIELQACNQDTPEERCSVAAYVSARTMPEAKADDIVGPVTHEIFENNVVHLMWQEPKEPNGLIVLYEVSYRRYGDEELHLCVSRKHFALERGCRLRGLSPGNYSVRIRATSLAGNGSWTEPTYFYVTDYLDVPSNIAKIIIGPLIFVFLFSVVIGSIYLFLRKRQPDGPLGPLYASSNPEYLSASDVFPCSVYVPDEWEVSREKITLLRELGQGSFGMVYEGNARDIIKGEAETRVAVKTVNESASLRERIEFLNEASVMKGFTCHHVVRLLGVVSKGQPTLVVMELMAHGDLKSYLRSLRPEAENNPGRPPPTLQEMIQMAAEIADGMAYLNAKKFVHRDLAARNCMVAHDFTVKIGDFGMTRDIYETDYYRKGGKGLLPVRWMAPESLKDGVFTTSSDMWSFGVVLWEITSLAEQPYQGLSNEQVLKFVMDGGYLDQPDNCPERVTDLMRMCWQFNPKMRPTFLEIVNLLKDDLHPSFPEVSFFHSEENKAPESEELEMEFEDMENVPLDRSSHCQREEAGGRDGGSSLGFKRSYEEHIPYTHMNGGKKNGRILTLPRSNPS
UniProt O14543: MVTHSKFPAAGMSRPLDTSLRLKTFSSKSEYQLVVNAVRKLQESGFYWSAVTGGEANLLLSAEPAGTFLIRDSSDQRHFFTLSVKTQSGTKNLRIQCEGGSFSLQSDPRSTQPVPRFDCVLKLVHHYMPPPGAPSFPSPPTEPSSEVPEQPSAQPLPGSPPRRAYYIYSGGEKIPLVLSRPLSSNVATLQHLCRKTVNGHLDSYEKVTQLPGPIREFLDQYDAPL

How the values were obtained:
[1] = target: insulin receptor (IR), detected as IR beta chain (IRβ) (human) (UniProt P06213); test: ex vivo Western blotting of human hippocampal formation tissue, ratio of SOCS3 to IRβ
[2] = target: insulin receptor (IR), detected as IR beta chain (IRβ) (human) (UniProt P06213); test: ex vivo Western blotting of human hippocampal formation tissue, ratio of SOCS3 to IRβ (figure legend)

Substance: SOCS3 (suppressor of cytokine signaling 3) (from UniProt O14543 1-225)
- binding [1]: binds
- binding [2]: binds
